Results on 37 targets are retold here after the supplement of paper PMC12819154, “High-throughput peptide-centric local stability assay extends protein–ligand identification to membrane proteins, tissues and bacteria” (Nature Structural & Molecular Biology, 2025).

Sequences of proteins named here, by UniProt entry; tags and fusion partners are left off. A change or cut given only in a name is not applied to a line headed by its entry.
UniProt O00483, whole entry: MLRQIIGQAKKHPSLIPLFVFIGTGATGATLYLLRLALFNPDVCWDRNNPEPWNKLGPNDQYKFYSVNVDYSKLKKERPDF
UniProt O00506, whole entry, looked up: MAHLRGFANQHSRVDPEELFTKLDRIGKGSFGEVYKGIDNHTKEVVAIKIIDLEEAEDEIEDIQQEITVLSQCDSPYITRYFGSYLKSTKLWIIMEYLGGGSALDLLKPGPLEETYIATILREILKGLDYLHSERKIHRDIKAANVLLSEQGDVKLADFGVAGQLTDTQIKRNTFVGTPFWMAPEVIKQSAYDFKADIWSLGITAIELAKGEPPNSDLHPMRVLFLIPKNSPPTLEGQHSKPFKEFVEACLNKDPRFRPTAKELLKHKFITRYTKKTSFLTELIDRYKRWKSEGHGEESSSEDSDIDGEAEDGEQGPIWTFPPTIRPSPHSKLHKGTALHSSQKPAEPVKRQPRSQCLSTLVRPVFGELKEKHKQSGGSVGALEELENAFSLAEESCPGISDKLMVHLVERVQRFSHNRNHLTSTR
UniProt O00459, whole entry: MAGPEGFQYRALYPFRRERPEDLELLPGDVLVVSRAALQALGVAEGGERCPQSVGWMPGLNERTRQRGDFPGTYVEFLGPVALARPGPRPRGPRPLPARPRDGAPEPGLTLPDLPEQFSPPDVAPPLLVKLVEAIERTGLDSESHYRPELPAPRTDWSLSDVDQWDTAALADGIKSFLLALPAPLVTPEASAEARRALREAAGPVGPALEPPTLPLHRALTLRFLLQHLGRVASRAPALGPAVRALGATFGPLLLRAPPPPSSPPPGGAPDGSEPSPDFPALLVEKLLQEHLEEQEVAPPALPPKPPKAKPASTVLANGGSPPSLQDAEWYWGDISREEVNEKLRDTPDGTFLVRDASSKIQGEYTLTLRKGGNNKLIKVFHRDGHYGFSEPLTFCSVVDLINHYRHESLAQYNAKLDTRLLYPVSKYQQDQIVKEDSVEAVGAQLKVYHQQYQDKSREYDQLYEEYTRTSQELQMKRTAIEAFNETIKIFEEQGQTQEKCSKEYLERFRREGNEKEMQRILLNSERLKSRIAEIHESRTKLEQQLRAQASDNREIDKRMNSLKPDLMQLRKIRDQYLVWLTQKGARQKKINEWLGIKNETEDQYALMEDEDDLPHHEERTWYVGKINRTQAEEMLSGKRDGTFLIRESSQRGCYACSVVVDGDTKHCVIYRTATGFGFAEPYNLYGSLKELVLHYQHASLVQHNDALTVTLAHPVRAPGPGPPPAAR
UniProt O00411: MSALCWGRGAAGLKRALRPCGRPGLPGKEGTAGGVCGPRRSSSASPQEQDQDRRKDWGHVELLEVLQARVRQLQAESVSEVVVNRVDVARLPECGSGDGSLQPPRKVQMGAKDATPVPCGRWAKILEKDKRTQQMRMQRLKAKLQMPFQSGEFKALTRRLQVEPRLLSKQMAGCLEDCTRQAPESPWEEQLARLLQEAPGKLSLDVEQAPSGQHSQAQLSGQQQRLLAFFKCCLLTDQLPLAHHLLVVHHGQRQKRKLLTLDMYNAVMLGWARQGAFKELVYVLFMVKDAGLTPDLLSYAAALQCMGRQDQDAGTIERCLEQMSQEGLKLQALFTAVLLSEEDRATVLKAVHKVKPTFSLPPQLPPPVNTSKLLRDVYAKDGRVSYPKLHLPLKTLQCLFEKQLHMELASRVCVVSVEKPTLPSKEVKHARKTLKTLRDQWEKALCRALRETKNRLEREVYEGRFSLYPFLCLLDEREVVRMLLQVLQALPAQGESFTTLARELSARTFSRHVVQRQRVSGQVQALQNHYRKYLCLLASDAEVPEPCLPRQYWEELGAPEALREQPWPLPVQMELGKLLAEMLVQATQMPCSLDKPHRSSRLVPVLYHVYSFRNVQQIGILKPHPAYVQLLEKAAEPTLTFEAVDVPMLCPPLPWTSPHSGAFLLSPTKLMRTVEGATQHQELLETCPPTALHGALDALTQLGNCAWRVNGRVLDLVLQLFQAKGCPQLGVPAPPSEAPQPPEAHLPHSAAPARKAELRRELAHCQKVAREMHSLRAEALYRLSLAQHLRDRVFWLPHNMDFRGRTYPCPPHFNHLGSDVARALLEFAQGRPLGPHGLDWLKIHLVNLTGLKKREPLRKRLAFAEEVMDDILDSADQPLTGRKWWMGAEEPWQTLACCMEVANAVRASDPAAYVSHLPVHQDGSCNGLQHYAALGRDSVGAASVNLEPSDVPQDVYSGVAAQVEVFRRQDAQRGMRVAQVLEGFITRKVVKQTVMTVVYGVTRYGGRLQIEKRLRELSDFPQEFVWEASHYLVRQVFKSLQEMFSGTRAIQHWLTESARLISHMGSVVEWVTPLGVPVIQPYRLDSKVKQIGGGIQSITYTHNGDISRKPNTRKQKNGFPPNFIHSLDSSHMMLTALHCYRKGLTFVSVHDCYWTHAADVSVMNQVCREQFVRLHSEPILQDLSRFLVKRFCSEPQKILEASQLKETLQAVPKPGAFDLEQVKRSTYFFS
UniProt O15156: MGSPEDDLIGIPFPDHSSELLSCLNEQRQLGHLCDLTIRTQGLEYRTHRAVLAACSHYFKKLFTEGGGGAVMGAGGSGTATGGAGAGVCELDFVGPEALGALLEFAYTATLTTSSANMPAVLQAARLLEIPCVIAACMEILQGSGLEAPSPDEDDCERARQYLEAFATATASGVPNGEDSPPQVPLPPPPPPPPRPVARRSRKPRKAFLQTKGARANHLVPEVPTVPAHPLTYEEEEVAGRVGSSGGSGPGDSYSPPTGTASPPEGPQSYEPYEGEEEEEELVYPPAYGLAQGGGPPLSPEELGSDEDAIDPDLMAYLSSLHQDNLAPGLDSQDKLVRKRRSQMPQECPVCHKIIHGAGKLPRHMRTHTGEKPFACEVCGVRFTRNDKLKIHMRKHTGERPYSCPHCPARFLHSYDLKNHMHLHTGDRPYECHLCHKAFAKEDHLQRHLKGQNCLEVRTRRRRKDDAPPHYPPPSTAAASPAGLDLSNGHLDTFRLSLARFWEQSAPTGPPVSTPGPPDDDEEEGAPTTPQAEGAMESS
UniProt O14981: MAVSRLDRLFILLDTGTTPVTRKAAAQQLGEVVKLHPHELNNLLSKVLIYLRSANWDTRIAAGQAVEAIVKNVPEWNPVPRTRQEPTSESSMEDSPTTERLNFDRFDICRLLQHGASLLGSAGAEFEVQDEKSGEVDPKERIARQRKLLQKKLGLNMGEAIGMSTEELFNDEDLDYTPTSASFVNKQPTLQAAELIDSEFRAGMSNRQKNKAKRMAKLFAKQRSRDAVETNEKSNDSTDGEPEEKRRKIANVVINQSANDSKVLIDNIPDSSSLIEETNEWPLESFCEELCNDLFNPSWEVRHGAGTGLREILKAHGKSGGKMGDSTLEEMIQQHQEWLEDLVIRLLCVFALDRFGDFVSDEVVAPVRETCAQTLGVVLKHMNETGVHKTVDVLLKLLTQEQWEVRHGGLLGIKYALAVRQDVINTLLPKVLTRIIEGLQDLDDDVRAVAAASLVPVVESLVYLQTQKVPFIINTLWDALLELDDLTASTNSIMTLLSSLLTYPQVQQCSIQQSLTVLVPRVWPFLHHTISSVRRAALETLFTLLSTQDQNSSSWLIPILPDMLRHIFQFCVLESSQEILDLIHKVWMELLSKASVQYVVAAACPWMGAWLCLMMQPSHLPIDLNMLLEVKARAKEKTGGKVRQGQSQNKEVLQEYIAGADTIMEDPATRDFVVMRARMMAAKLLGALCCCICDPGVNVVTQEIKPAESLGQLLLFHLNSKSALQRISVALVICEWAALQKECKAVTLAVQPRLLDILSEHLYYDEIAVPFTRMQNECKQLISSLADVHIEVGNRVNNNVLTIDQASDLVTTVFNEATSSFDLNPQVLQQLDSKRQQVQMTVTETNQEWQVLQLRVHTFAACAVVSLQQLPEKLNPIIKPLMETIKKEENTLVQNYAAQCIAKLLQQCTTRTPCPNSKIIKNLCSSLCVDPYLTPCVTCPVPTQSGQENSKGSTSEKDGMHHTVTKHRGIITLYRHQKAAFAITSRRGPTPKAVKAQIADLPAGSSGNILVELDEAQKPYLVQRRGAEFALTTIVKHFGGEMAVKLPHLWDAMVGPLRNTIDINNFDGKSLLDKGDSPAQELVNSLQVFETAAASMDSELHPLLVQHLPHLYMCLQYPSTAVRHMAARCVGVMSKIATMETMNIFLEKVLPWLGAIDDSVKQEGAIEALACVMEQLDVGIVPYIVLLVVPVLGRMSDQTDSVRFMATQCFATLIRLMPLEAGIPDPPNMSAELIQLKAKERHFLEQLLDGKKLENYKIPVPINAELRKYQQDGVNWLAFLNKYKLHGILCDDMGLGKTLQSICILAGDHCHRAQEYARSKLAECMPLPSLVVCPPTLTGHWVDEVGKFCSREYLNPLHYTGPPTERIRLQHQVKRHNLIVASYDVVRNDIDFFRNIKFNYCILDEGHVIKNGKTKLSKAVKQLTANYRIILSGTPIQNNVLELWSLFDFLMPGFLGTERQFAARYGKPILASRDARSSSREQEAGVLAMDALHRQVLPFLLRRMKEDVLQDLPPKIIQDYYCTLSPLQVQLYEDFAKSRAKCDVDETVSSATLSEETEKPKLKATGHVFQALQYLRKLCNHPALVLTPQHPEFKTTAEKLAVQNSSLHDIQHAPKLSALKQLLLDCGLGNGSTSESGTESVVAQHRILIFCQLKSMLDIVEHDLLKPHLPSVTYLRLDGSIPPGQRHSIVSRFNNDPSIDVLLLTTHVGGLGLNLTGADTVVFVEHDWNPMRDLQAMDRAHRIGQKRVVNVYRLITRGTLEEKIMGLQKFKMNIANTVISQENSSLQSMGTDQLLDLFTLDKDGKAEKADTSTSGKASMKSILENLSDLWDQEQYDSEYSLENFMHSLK
UniProt O14653: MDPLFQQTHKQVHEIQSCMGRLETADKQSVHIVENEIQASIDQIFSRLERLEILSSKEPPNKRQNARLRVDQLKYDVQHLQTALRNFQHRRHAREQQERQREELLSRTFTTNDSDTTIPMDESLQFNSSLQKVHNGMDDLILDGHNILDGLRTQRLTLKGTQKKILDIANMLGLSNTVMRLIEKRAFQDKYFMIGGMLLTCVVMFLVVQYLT
UniProt O00154: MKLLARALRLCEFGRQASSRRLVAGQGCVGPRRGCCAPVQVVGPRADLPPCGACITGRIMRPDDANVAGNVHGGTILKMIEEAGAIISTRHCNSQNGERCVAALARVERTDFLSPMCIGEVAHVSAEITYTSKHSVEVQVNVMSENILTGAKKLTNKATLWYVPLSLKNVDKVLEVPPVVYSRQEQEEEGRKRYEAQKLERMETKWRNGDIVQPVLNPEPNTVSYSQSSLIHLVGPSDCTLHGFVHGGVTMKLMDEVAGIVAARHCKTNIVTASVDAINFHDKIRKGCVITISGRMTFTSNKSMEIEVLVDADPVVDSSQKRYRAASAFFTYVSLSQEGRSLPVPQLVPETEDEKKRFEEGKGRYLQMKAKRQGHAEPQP
UniProt O15173: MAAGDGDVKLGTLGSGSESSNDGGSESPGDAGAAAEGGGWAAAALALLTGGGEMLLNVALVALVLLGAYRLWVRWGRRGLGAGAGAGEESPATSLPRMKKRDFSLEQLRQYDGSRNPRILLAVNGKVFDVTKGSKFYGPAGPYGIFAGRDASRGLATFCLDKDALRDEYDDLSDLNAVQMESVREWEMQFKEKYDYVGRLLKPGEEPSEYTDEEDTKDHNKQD
UniProt O14933: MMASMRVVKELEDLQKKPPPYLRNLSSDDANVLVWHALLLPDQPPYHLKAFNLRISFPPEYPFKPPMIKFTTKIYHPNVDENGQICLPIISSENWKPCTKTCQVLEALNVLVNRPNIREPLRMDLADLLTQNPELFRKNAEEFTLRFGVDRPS
UniProt O00311: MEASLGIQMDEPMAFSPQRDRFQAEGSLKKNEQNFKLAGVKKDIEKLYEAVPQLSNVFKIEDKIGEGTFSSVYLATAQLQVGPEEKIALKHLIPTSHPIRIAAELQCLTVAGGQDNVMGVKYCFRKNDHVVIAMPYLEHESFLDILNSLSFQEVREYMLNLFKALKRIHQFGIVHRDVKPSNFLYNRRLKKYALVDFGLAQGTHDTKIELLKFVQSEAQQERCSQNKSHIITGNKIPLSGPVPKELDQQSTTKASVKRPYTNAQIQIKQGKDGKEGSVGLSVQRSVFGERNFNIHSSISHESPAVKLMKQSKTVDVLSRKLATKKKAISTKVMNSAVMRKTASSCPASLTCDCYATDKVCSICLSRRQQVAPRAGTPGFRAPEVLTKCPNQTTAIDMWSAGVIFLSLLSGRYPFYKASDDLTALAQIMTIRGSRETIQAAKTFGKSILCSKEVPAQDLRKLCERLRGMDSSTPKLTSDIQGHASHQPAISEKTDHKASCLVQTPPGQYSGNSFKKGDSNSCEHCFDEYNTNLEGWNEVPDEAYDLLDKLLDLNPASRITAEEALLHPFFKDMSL

This is one part of the list. Most values lie at the level of the controls, where differences are scatter.

Compound in the assay: Cc1nc(Nc2ncc(C(=O)Nc3c(C)cccc3Cl)s2)cc(N2CCN(CCO)CC2)n1 [dasatinib]
Nature of the assay: log2 fold change of tryptic peptide abundance, ligand vs vehicle (limited proteolysis) (log2 ratio); higher = more trypsin-susceptible (destabilized). Conditions: ligand concentration: 5 uM; sample: K562 cleared lysate.
On to “SPTLC2 (peptide sequence: ANGCVANGEVR, peptide start residue: 16) (UniProt O15270)”, for which the log2 fold change was 0.11.
On to “NDUFA4 (peptide sequence: LGPNDQYK, peptide start residue: 56) (UniProt O00483)”, for which the log2 fold change was -0.0691.
With “PDHX (peptide sequence: STVPHAYATADCDLGAVLK, peptide start residue: 296) (UniProt O00330)” the figure was -0.426; with “WDR46 (peptide sequence: QSLQQQHHK, peptide start residue: 583) (UniProt O15213)”, -0.588.
With “UniProt O15040 (peptide sequence: DGLEMSGCSER, peptide start residue: 364)” the figure was 0.108; with “UniProt O00506 (peptide sequence: YFGSYLK, peptide start residue: 81)”, -0.449; with “SCAMP2 (peptide sequence: QQEELDR, peptide start residue: 88) (UniProt O15127)”, 0.335.
As for “PIK3R2 (peptide sequence: YQQDQIVK, peptide start residue: 428) (UniProt O00459)”, the log2 fold change came out at 0.631.
On to “RNASET2 (peptide sequence: GLRVCEDGPVFYPPPKK, peptide start residue: 237) (UniProt O00584)”, for which the log2 fold change was 0.0618.
The result for “SPTLC1 (peptide sequence: LLKEQEIEDQKNPR, peptide start residue: 220) (UniProt O15269)” reads -0.418; that for “FHAD1 (peptide sequence: ETLEEERK, peptide start residue: 703) (UniProt B1AJZ9)”, 0.0353.
The result for “NDUFS8 (peptide sequence: EPATINYPFEK, peptide start residue: 78) (UniProt O00217)” reads -0.298; that for “POLRMT (peptide sequence: LHSEPILQDLSR, peptide start residue: 1174) (UniProt O00411)”, -0.519; that for “ZBTB7B (peptide sequence: QLGHLCDLTIR, peptide start residue: 29) (UniProt O15156)”, 0.508.
“EIF3H (peptide sequence: EFTAQNLGK, peptide start residue: 332) (UniProt O15372)”: the log2 fold change is 0.0599.
The result for “TXNDC9 (peptide sequence: KFGTNFTK, peptide start residue: 201) (UniProt O14530)” reads 0.0669; that for “UniProt O14628 (peptide sequence: TFIQCSHFTEPENIDTGEKPYK, peptide start residue: 280)”, -0.383.
The result for “BTAF1 (peptide sequence: ATGHVFQALQYLRK, peptide start residue: 1564) (UniProt O14981)” reads 0.457; that for “ADAM10 (peptide sequence: ESYQMGHMR, peptide start residue: 739) (UniProt O14672)”, 0.0751.
The result for “UniProt O14529 (peptide sequence: VVLAPEEK, peptide start residue: 1249)” reads 0.275.
As to “PIK3C2A (peptide sequence: LIESSLGSIATK, peptide start residue: 1374) (UniProt O00443)”, the log2 fold change was -0.469.
For “KMT2D (peptide sequence: KGEAEGPGGKEK, peptide start residue: 4832) (UniProt O14686)”, the log2 fold change was -1.12.
With “PDLIM1 (peptide sequence: QKGHFFVEDQIYCEK, peptide start residue: 295) (UniProt O00151)” the figure was -0.285; with “GOSR2 (peptide sequence: MDPLFQQTHK, peptide start residue: 1) (UniProt O14653)”, 0.0612.
The result for “CEP290 (peptide sequence: NTCIIEDLKNELQR, peptide start residue: 381) (UniProt O15078)” reads 0.884.
With “UniProt O15524 (peptide sequence: IPLNPVLR, peptide start residue: 194)” the figure was 0.26; with “AIP (peptide sequence: HVVLYPLVAK, peptide start residue: 94) (UniProt O00170)”, -0.162.
With “E2F3 (peptide sequence: TNNQDHNGNIPKPASK, peptide start residue: 363) (UniProt O00716)”, the log2 fold change was -0.279.
As for “PIP5K1B (peptide sequence: ALVYDGDTVSVHRPSFYADR, peptide start residue: 367) (UniProt O14986)”, the log2 fold change was -0.317.
The result for “UBFD1 (peptide sequence: LPTVPLSGMYNK, peptide start residue: 213) (UniProt O14562)” reads 0.125.
With “ACOT7 (peptide sequence: SLPVPQLVPETEDEKKR, peptide start residue: 341) (UniProt O00154)” the figure was 0.228; with “TOR1B (peptide sequence: IYSDKGCK, peptide start residue: 320) (UniProt O14657)”, -0.2; with “POLR3G (peptide sequence: MEELEKR, peptide start residue: 145) (UniProt O15318)”, -0.356.
With “PGRMC2 (peptide sequence: EKYDYVGR, peptide start residue: 192) (UniProt O15173)” the figure was -0.396; with “UBE2L6 (peptide sequence: NAEEFTLR, peptide start residue: 139) (UniProt O14933)”, 0.142; with “EEF2K (peptide sequence: LTPQAFSHFTFER, peptide start residue: 253) (UniProt O00418)”, 0.163.
As for “CDC7 (peptide sequence: YALVDFGLAQGTHDTK, peptide start residue: 192) (UniProt O00311)”, the log2 fold change was -0.417.
